{"source": "patent US20230165835A1", "about": "“METHODS OF TREATING ACUTE LUNG INJURY USING EBSELEN” (SOUND PHARMACEUTICALS INC., priority 2020, published 2023)", "experiment": "Cytotoxicity / cell viability in Vero E6 cells", "format": "cell-based", "conditions": "African green monkey", "data": [{"compound": "CCC(CC)COC(=O)[C@H](C)N[P@](=O)(OC[C@H]1O[C@@](C#N)(c2ccc3c(N)ncnn23)[C@H](O)[C@@H]1O)Oc1ccccc1", "note": "[remdesivir]", "values": [{"measurement": "CC50", "value": "> 10", "unit": "µM"}]}]}
